Measurements published in publication PMC6249555.
No constants are given. Whether binding was seen depends on the method and setting. In cells and extracts the contact can be indirect. Some results given as binding are weak or reduced against the parent protein; the word gives no strength. For some assays here: Where a sequence is shown, tags or fusion partners need not be part of it.

Protein sequences, listed by entry. Tags and fused reporters are not part of them. Residues count along the entry.
UniProt P55064: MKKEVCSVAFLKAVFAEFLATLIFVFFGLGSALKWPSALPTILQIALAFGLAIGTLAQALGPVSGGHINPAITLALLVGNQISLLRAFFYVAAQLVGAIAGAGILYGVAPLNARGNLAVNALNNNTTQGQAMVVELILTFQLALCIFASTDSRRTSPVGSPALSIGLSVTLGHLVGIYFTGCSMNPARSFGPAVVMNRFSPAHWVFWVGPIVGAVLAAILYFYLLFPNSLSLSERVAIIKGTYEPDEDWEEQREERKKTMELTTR
UniProt Q9WTY4: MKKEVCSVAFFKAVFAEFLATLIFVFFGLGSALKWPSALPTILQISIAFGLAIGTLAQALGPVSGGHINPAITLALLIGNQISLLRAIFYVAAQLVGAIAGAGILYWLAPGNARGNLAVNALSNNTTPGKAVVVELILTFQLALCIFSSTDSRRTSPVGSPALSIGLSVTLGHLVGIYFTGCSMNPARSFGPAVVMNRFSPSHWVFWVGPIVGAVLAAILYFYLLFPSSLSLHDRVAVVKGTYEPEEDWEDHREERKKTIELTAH
UniProt O43570, residues 25-354: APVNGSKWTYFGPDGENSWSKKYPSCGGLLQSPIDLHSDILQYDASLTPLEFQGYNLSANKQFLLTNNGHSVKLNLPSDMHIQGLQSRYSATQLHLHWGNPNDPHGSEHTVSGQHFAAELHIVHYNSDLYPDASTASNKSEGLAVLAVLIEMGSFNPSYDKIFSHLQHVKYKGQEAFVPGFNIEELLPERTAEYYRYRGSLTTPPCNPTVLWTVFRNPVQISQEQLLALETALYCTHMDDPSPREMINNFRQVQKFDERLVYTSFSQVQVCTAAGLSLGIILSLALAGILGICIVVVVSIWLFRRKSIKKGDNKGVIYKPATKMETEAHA

Key:
[1] = target: GFP-tagged human AQP5 (human) (UniProt P55064); experiment: co-IP; immunoprecipitation assay; no figure cited; cells and constructs not named
[2] = target: GFP-tagged human AQP5 (human) (UniProt P55064); experiment: co-IP; lysate of transfected HEK293T cells (20 mM Tris, 150 mM NaCl, 2 mM EDTA, 1% Triton X-100); 1 ug/mL of the indicated antibodies at 4 °C for 16 h, protein G plus agarose beads for 4 h, washed thrice with lysis buffer
[3] = target: AQP5, native, in isolated mouse submandibular gland (SMG) cells (mouse (endogenous in SMG cells)) (UniProt Q9WTY4); experiment: co-IP; isolated mouse submandibular gland (SMG) cells, native proteins; which protein was precipitated is not given

Molecule | binding [2] | binding [3] | further results
mKate-human CA12 wild type (from UniProt O43570 25-354) (enzyme) | – | – | binding [1]: no binding
AE2, native, in isolated mouse submandibular gland (SMG) cells (protein, UniProt P13808 1-1237) MSSAPRRPASGADSLHTPEPESLSPGTPGFPEQEEDELRTLGVERFEEILQEAGSRGGEEPGRSYGEEDFEYHRQSSHHIHHPLSTHLPPDARRRKTPQGPGRKPRRRPGASPTGETPTIEEGEEDEEEASEAEGFRAPPQQPSPATTPSAVQFFLQEDEGAERKPERTSPSPPTQTPHQEAAPRASKGAQTGTLVEEMVAVASATAGGDDGGAAGRPLTKAQPGHRSYNLQERRRIGSMTGVEQALLPRVPTDESEAQTLATADLDLMKSHRFEDVPGVRRHLVRKNAKGSTQAAREGREPGPTPRARPRAPHKPHEVFVELNELLLDKNQEPQWRETARWIKFEEDVEEETERWGKPHVASLSFRSLLELRRTLAHGAVLLDLDQQTLPGVAHQVVEQMVISDQIKAEDRANVLRALLLKHSHPSDEKEFSFPRNISAGSLGSLLGHHHAQGTESDPHVTEPLIGGVPETRLEVDRERELPPPAPPAGITRSKSKHELKLLEKIPENAEATVVLVGCVEFLSRPTMAFVRLREAVELDAVLEVPVPVRFLFLLLGPSSANMDYHEIGRSISTLMSDKQFHEAAYLADERDDLLTAINAFLDCSVVLPPSEVQGEELLRSVAHFQRQMLKKREEQGRLLPPGAGLEPKSAQDKALLQMVEVAGAAEDDPLRRTGRPFGGLIRDVRRRYPHYLSDFRDALDPQCLAAVIFIYFAALSPAITFGGLLGEKTKDLIGVSELIMSTALQGVVFCLLGAQPLLVIGFSGPLLVFEEAFFSFCSSNELEYLVGRVWIGFWLVFLALLMVALEGSFLVRFVSRFTQEIFAFLISLIFIYETFYKLIKIFQEHPLHGCSGSNDSEAGSSSSSNMTWATTILVPDNSSASGQSGQEKPRGQPNTALLSLVLMAGTFFIAFFLRKFKNSRFFPGRIRRVIGDFGVPIAILIMVLVDYSIEDTYTQKLSVPSGFSVTAPDKRGWVINPLGEKTPFPVWMMVASLLPAVLVFILIFMETQITTLIISKKERMLQKGSGFHLDLLLIVAMGGICALFGLPWLAAATVRSVTHANALTVMSKAVAPGDKPKIQEVKEQRVTGLLVALLVGLSMVIGDLLRQIPLAVLFGIFLYMGVTSLNGIQFYERLHLLLMPPKHHPDVTYVKKVRTMRMHLFTALQLLCLALLWAVMSTAASLAFPFILILTVPLRMVVLTRIFTEREMKCLDANEAEPVFDECEGVDEYNEMPMPV | – | binds | –
HA-rabbit AE2 (protein, UniProt P48746 1-1237) MSSAPRRPASGADSFRTPEPESLGPGTPGFPEQEEDELHRTLGVERFEEILQEAGSRGGEEPGRSYGEEDFEYHRQSSHHIHHPLSTHLPPDARRRKTPQGPGRKPRRRPGASPTGATPTIEEGEEDEEEANEAEGARAPTEPSPASTPSSVQFFLQEDEGAERKAERTSPSPPTLLPHQEAAPWATEGAQTGVPVEEVAVVASGTAGGDNGGASGRPLTKAQPGHRSYNLQERRRIGSMTGAEQALLPRVPTDESEAQTLATADLDLMKSHRFEDVPGVRRHLVRKNAKGSAQSSREGREPGPTPRSRPRAPHKPHEVFVELNELLLDKNQEPQWRETARWIKFEEDVEEETERWGKPHVASLSFRSLLELRRTLAHGAVLLDLDQQTLPGVAHQVVEQMVISDQIKAEDRANVLRALLLKHSHPSDEKDFSFPRNISAGSLGSLLGHHHGQGAESDPHVTEPLIGGIPETRLDVERERDVPPSAPPAGITRSKSKHELKLLEKIPENAEATVVLVGCVEFLSRPTMAFVRLREAVELDAVLEVPVPVRFLFLLLGPSSANMDYHEIGRSISTLMSDKQFHEAAYLADEREDLLTAINAFLDCSVVLPPSEVQGEELLRSVAHFQRQMLKKREEQGRLLPPGLGLEPKSAQDKALLQMVEAAGAAEDDPLRRTGRPFGGLIRDVRRRYPHYLSDFRDALDPQCVAAVIFIYFAALSPAITFGGLLGEKTQDLIGVSELIMSTALQGVIFCLLGAQPLLVIGFSGPLLVFEEAFFTFCSSNQLEYLVGRVWIGFWLVLLALLMVALEGSFLVRFVSRFTQEIFAFLISLIFIYETFYKLIKIFQEHPLHGCSVSNSSETDSSENATWAGAGSTLGPANRSSAGQAGQGRPRGQPNTALLSLVLMAGTFFIAFFLRKFKNSRFFPGRIRRVIGDFGVPIAILIMVLVDYSIEDTYTQKLSVPSGFSVTAPDKRGWVINPLGEKSPFPVWMMVASLLPAILVFILIFMETQITTLIISKKERMLQKGSGFHLDLLLIVAMGGICALFGLPWLAAATVRSVTHANALTVMSKAVAPGDKPKIQEVKEQRVTGLLVALLVGLSIVIGDLLRQIPLAVLFGIFLYMGVTSLNGIQFYERLHLLLMPPKHHPDVTYVKKVRTLRMHLFTALQLLCLALLWAVMSTAASLAFPFILILTVPLRMVVLTRIFTEREMKCLDANEAEPVFDEREGVDEYNEMPMPV | binds | – | –

Second part, led by results:

binding [2] | binding [3] | Molecule | further results
binds | – | human NKCC1 (pcDNA3.0-human NKCC1) (protein, UniProt P55011 1-1212) MEPRPTAPSSGAPGLAGVGETPSAAALAAARVELPGTAVPSVPEDAAPASRDGGGVRDEGPAAAGDGLGRPLGPTPSQSRFQVDLVSENAGRAAAAAAAAAAAAAAAGAGAGAKQTPADGEASGESEPAKGSEEAKGRFRVNFVDPAASSSAEDSLSDAAGVGVDGPNVSFQNGGDTVLSEGSSLHSGGGGGSGHHQHYYYDTHTNTYYLRTFGHNTMDAVPRIDHYRHTAAQLGEKLLRPSLAELHDELEKEPFEDGFANGEESTPTRDAVVTYTAESKGVVKFGWIKGVLVRCMLNIWGVMLFIRLSWIVGQAGIGLSVLVIMMATVVTTITGLSTSAIATNGFVRGGGAYYLISRSLGPEFGGAIGLIFAFANAVAVAMYVVGFAETVVELLKEHSILMIDEINDIRIIGAITVVILLGISVAGMEWEAKAQIVLLVILLLAIGDFVIGTFIPLESKKPKGFFGYKSEIFNENFGPDFREEETFFSVFAIFFPAATGILAGANISGDLADPQSAIPKGTLLAILITTLVYVGIAVSVGSCVVRDATGNVNDTIVTELTNCTSAACKLNFDFSSCESSPCSYGLMNNFQVMSMVSGFTPLISAGIFSATLSSALASLVSAPKIFQALCKDNIYPAFQMFAKGYGKNNEPLRGYILTFLIALGFILIAELNVIAPIISNFFLASYALINFSVFHASLAKSPGWRPAFKYYNMWISLLGAILCCIVMFVINWWAALLTYVIVLGLYIYVTYKKPDVNWGSSTQALTYLNALQHSIRLSGVEDHVKNFRPQCLVMTGAPNSRPALLHLVHDFTKNVGLMICGHVHMGPRRQAMKEMSIDQAKYQRWLIKNKMKAFYAPVHADDLREGAQYLMQAAGLGRMKPNTLVLGFKKDWLQADMRDVDMYINLFHDAFDIQYGVVVIRLKEGLDISHLQGQEELLSSQEKSPGTKDVVVSVEYSKKSDLDTSKPLSEKPITHKVEEEDGKTATQPLLKKESKGPIVPLNVADQKLLEASTQFQKKQGKNTIDVWWLFDDGGLTLLIPYLLTTKKKWKDCKIRVFIGGKINRIDHDRRAMATLLSKFRIDFSDIMVLGDINTKPKKENIIAFEEIIEPYRLHEDDKEQDIADKMKEDEPWRITDNELELYKTKTYRQIRLNELLKEHSSTANIIVMSLPVARKGAVSSALYMAWLEALSKDLPPILLVRGNHQSVLTFYS | –
– | binds | NKCC1, native, in mouse submandibular gland (SMG) (protein, UniProt P55012 1-1205) MEPGPARPRLAPAARPGWGRAAGCRRRGGPARHGRASGQEDATTAGRQAGGGVRGEGTPAAGDGLGRPLGPTPSQSRFQVDPVSENAGRAAAAAAAAAAAAAAAGAAGKETPAAGKAGGESGVAKGSEEAKGRFRVNFVDPAASSSADDSLSDAAGVGGDGPNVSFQNGGDTVLSEGSSLHSGGGSGHHQQYYYDTHTNTYYLRTFGHNTMDAVPRIDHYRHTAAQLGEKLLRPSLAELHDELEKEPFEDGFANGEESTPTRDAVVAYTAESKGVVKFGWIKGVLVRCMLNIWGVMLFIRLSWIVGQAGIGLSVVVIAMATVVTTITGLSTSAIATNGFVRGGGAYYLISRSLGPEFGGAIGLIFAFANAVAVAMYVVGFAETVVELLKEHSILMIDEINDIRIIGAITVVILLGISVAGMEWEAKAQIVLLVILLLAIADFVIGTFISLESKKPKGFFGYKSEIFNENFGPDFREEETFFSVFAIFFPAATGILAGANISGDLADPQSAIPKGTLLAILITTVVYIGIAVSVGSCVVRDATGNVNDTITTELTNCTSAACKLNFDFSYCESNTCSYGLMNNFQVMSMVSGFAPLISAGIFSATLSSALASLVSAPKIFQALCKDNIYPAFQMFAKGYGKNNEPLRGYILTFLIALGFILIAELNVIAPIISNFFLASYALINFSVFHASLAKSPGWRPAFKYYNMWISLIGAILCCIVMFVINWWAALLTYVIVLGLYIYVTYKKPDVNWGSSTQALTYLSALQHSIRLSGVEDHVKNFRPQCLVMTGSPNSRPALLHLVHDFTKNVGLMICGHVHMGPRRQAMKEMSIDQARYQRWLIKNKMKAFYAPVHADDLREGAQYLMQAAGLGRMKPNTLVLGFKKDWLQADMRDVDMYINLFHDAFDIQFGVVVIRLKEGLDISHLQGQEELLSSQEKSPGTKDVVVNVDYSKKSDQDTCKSSGEKSITQKDEEEDGKTPTQPLLKKESKGPIVPLNVADQKLLEASTQFQKKQGKNTIDVWWLFDDGGLTLLIPYLLTTKKKWKDCKIRVFIGGKINRIDHDRRAMATLLSKFRIDFSDIMVLGDINTKPKKENIIAFDDMIEPYRLHEDDKEQDIADKMKEDEPWRITDNELELYKTKTYRQIRLNELLKEHSSTANIIVMSLPVARKGAVSSALYMAWLEALSKDLPPVLLVRGNHQSVLTFYS | –
